# Patent US20220211858A1, “TUBULAR SUPRAMOLECULAR POLYMERS” (priority 2019, published 2022)
# For at least one compound, name, drawing or mass did not settle the structure.
# Test: Maximum tolerated dose (MTD) dose escalation study
# Assay type: in vivo
# Settings: single i.v. injection, CPT equivalent, healthy athymic nude mice
# Experimental: Maximum tolerated dose (MTD) studies. MTD of SAPD 1 has been previously determined in our lab (Table 1). MTDs of other SAPDs were determined by dose escalation studies in healthy female athymic nude mice (Charles River, 12-13 weeks old). A single intravenous (i.v.) injection of SAPD was dosed at day 1 and the body weights of each mouse (n=3) were recorded every day for six days and every the other day until two weeks. The dosing volume was determined based upon a ratio of 200 μL for a 20 g mouse. Doses of SAPDs used in the studied were 108, 72, 54, 45, 36 and 18 mg/kg (CPT equivalent).
structure (smiles),measurement,value
CC[C@]1(OC(=O)OCCSSC[C@@H](NC(C)=O)C(=O)N[C@@H](CCCCNC(=O)[C@@H](CSSCCOC(=O)O[C@]2(CC)C(=O)OCc3c2cc2n(c3=O)Cc3cc4ccccc4nc3-2)NC(C)=O)C(=O)N[C@@H](CCCCNC(=O)CCOCCOCCOCCOCCOC)C(=O)N[C@@H](CCCCNC(=O)CCOCCOCCOCCOCCOC)C(N)=O)C(=O)OCc2c1cc1n(c2=O)Cc2cc3ccccc3nc2-1 [TT 1],maximum tolerated dose (MTD),24 to 30 mg/kg
